Inconclusive results, whose numbers are uncertain, are shown with a selection of clear calls. Where the call is inconclusive, the potency comes from a doubtful curve fit. Active and inactive are the calls of the source. The call rests on the fitted dose curve; in most records, active means well fitted cell-killing curve with a large enough effect; inconclusive means small, poorly fitted or top-dose-only effect; inactive means flat fitted curve, though single readings scatter.
Assay: Quantitative highthroughput screen to assess conditional lethalithy of P12 Ichikawa cells grown in RPMI1640 with untreated serum (RPMI+s) (AID 1963881); further: nearly all actives have a fitted effect of over 35% in size
Conditions: ATP luminescence, 48 h; Potency: viability; series mostly up to 45.8 µM
From the text: Assay Provider: Jason Cantor Ph.D.
Department of Biochemistry
University of Wisconsin-Madison, Madison, WI, USA
Chemical screening studies have identified drug sensitivities across hundreds of cancer cell lines but most putative therapeutics fail to translate. Discovery and development of drug candidates in models that more accurately reflect nutrient levels in human blood is a major challenge. Here we performed high-throughput screens in conventional versus Human Plasma-Like Medium (HPLM) to identify compounds that were "missed" when screening using the artificial culture condition. Sets of conditional anticancer compounds spanned phases of clinical development and included non-oncology drugs were assessed. […] We also traced conditional phenotypes for several chemotherapeutics to availability of HPLM-specific metabolites and confirmed others for compounds whose reported targets are encoded by nonessential genes. Our findings establish generalizable strategies for exploiting conditional lethality in HPLM to reveal therapeutic candidates and mechanisms of action in cancer cells.
Described herein are the results of each viability screens against three cell lines: NOMO1 (an acute myeloid leukemia cell line); P12-Ichikawa (a T-cell acute lymphoblastic leukemia); and SEM (a B-cell ALL). Each assay was screened using 3 different cell culture media: homemade human plasma-Like medium with 10% dialyzed fetal bovine serum (HPLM+ds); RPMI1640 with 10% untreated FBS and 5mM glucose (RPMI+s); and RPMI1640 with 10% dialyzed fetal bovine serum and 5 mM glucose (RPMI+ds).
PROTOCOL TABLE (as described by Inglese J, Shamu CE and Guy RK. 2007)
SEQUENCE No. (e.g., 1, 2, 3, etc.); […] (e.g., Cells, Incubation, Reagent, etc.); VALUE and DESCRIPTION.
1; Cells; 5 uL; white, solid bottom 1536-well Greiner assay plate.
2; Compounds; 23 nL; Kalypsis pin tool (Wako USA) equipped with a 1536-well pin head to transfer to the assay plates.
3; Incubation; 48 hours; 37C incubation.
4; Reagent; 3 uL; CellTiter Glo (Promega).
5; Incubation; 5 min, room temperature
6; Detection; Luminescence, Viewlux PerkinElmer.
NOTES (numbers refer to Sequence numbers above)
1. Briefly, 5 ul of cell reagent was dispensed using a Multidrop Combi Dispenser. The NOMO1 and SEM cells were plated at 500 cells/well and the P12-Ichikawa line at 1000 cells/well.
2. After seeding the cells, 23 nL of MIPE 4.1 library compounds (in DMSO) were added to each plate using a Kalypsys 1536 Pintool dispenser. Bortezomib at final concentration of […] and DMSO were added to each plate as positive and negative controls respectively. For each screen, MIPE 4.1 compounds were added over an eleven-point concentration range […] in 3-fold dilutions.
3. Each plate was covered with a stainless steel gasketed lid to prevent evaporation and incubated for 48 hour at 37C, 95% relative humidity, and 5% CO2.
4-5. Three microliter CellTilter-GloTM luminescent substrate mix (Promega) reagent was added to the assay plate and incubated at room temperature for 5 min.
6. The luminescence signal was measured using a ViewLux (PerkinElmer) multiplate reader with a 2 second exposure time per plate. Data for each compound were normalized as percent viability such that measurements for DMSO and the empty well controls in each plate were defined as 100% and 0%, respectively.
Potency means the concentration at half of the fitted maximal effect.

Compound	Potency
COC[C@H]1OC(=O)c2coc3c2[C@@]1(C)C1=C(C3=O)[C@@H]2CC[C@H](O)[C@@]2(C)C[C@@H]1OC(C)=O	inconclusive: 16.6 µM [cytotoxic, partial curve, poor fit]
O=C(Nc1ccncc1)C(=O)c1cn(Cc2ccc(Cl)cc2)c2ccccc12	inconclusive: 0.0526 µM [cytotoxic, full curve]
CC1=NN=C(c2ccc(N)cc2)c2cc3c(cc2C1)OCO3	inconclusive: 37.2 µM [cytotoxic, single point]
COC1(CS(=O)c2ccccc2)CCN(CCc2c[nH]c3ccc(F)cc23)CC1 (stereo not given)	inactive
O=S(=O)(CC1CS1)c1ccc(Oc2ccccc2)cc1 (stereo not given)	inconclusive: 29.6 µM [cytotoxic, single point]
CCCC[N+]1(C)[C@H]2CC(OC(=O)[C@H](CO)c3ccccc3)C[C@H]1[C@H]1O[C@H]12 (stereo not given in full)	inactive
COC1=CC(C)=C[C@@H](C)[C@@H](O)[C@@H](C)CC(C)=CC=C[C@H](OC)[C@H]([C@@H](C)[C@@H](O)[C@H](C)[C@@]2(O)C[C@@H](O)[C@H](C)[C@@H](C(C)C)O2)OC1=O	inconclusive: 0.0743 µM [cytotoxic, full curve]
N=c1c2c(-c3ccccc3)c(-c3ccccc3)n(Cc3ccccc3)c2ncn1C1CCC(O)CC1 (stereo not given)	inconclusive: 6.62 µM [cytotoxic, partial curve]
Cc1c(C(=O)Nc2cccc(C(F)(F)F)c2)cc(-c2ccccc2)n1CCCN1CCOCC1	inconclusive: 18.7 µM [cytotoxic, partial curve, poor fit]
Cc1c(N)nc([C@H](CC(N)=O)NC[C@@H](N)C(N)=O)nc1C(=O)N[C@H](C(=O)N[C@@H](C)[C@H](O)[C@@H](C)C(=O)N[C@@H](C(=O)NCCc1nc(-c2nc(C(=O)NCCC[S+](C)C)cs2)cs1)[C@@H](C)O)C(O[C@H]1O[C@H](CO)[C@H](O)[C@@H](O)[C@@H]1O[C@H]1O[C@H](CO)[C@@H](O)[C@H](OC(N)=O)[C@H]1O)c1cnc[nH]1 (stereo not given in full)	inconclusive: 1.66 µM [cytotoxic, full curve]
C=CCON=C(C[C@H]1O[C@@H]2O[C@]3(C)CC[C@@H]4[C@H](C)CC[C@@H]([C@H]1C)[C@@]24OO3)[C@H]1O[C@@H]2O[C@]3(C)CC[C@H]4[C@H](C)CC[C@@H]([C@@H]1C)[C@@]24OO3	inconclusive: 8.33 µM [cytotoxic, partial curve]
C[C@]12CC[C@H]3[C@@H](CCC4=CC(=O)CC[C@@]43C)[C@H]1CC[C@H]2OC(=O)CCC1CCCC1	inactive
CN1[C@H]2CC(O)C[C@H]1[C@H]1O[C@H]12 (stereo not given in full)	inconclusive: 29.6 µM [cytotoxic, single point]
CC(O)=C(C#N)C(=O)Nc1cc(Br)ccc1Br	inactive
CO[C@H]1CCC(O[C@H]2C[C@H]([C@]3(C)CC[C@]4(C[C@H](O)[C@@H](C)[C@@H]([C@@H](C)C=C(C)C(=O)[C@H](C)C[C@H](C)C(=O)O)O4)O3)O[C@]3(O[C@@H]([C@H]4O[C@@](O)(CO)[C@H](C)C[C@H]4C)C[C@H]3C)[C@H]2C)O[C@H]1C (stereo not given in full)	inconclusive: 2.96 µM [cytotoxic, full curve]
CC[C@@H]1[C@@H](C)O[C@@](O)([C@@H](C)[C@H](O)[C@H](C)[C@H]2OC(=O)C=CC=C[C@@H](C)[C@@H]([C@@H](C)[C@@H](O)[C@H](C)[C@@]3(O)C[C@H](O[C@H]4C[C@H](O)[C@H](O)[C@H](C)O4)[C@H](CC)[C@@H](C)O3)OC(=O)C=CC=C[C@@H]2C)C[C@H]1O[C@H]1C[C@H](O)[C@H](O)[C@H](C)O1	active: 7.43 µM
O=C(O)CCCc1ccc(N(CCCl)CCCl)cc1	inconclusive: 33.2 µM [cytotoxic, single point]
C[C@]12CCC(=O)C=C1CC[C@@H]1[C@H]3CC[C@](C)(O)[C@@]3(C)CC[C@@H]12	inactive
CC(C)(C)c1cc(C=C(C#N)C#N)cc(Br)c1O	inactive
CCOC(=O)c1cncn1[C@H](C)c1ccccc1	inactive

Seven of these compounds, reformatted:
Compound | Potency
COC[C@H]1OC(=O)c2coc3c2[C@@]1(C)C1=C(C3=O)[C@@H]2CC[C@H](O)[C@@]2(C)C[C@@H]1OC(C)=O | inconclusive: 16.6 µM [cytotoxic, partial curve, poor fit]
Cc1c(C(=O)Nc2cccc(C(F)(F)F)c2)cc(-c2ccccc2)n1CCCN1CCOCC1 | inconclusive: 18.7 µM [cytotoxic, partial curve, poor fit]
C[C@]12CC[C@H]3[C@@H](CCC4=CC(=O)CC[C@@]43C)[C@H]1CC[C@H]2OC(=O)CCC1CCCC1 | inactive
CN1[C@H]2CC(O)C[C@H]1[C@H]1O[C@H]12 (stereo not given in full) | inconclusive: 29.6 µM [cytotoxic, single point]
CC[C@@H]1[C@@H](C)O[C@@](O)([C@@H](C)[C@H](O)[C@H](C)[C@H]2OC(=O)C=CC=C[C@@H](C)[C@@H]([C@@H](C)[C@@H](O)[C@H](C)[C@@]3(O)C[C@H](O[C@H]4C[C@H](O)[C@H](O)[C@H](C)O4)[C@H](CC)[C@@H](C)O3)OC(=O)C=CC=C[C@@H]2C)C[C@H]1O[C@H]1C[C@H](O)[C@H](O)[C@H](C)O1 | active: 7.43 µM
O=C(O)CCCc1ccc(N(CCCl)CCCl)cc1 | inconclusive: 33.2 µM [cytotoxic, single point]
C[C@]12CCC(=O)C=C1CC[C@@H]1[C@H]3CC[C@](C)(O)[C@@]3(C)CC[C@@H]12 | inactive

Next part.

Compound	Potency
C[C@](O)(CS(=O)(=O)c1ccc(F)cc1)C(=O)Nc1ccc(C#N)c(C(F)(F)F)c1	inactive
CC(N[C@H]1C[C@H]1c1ccccc1)c1ccc2c(c1)OCCO2 (stereo not given in full)	inactive
C[C@@H]1[C@@H](C(=O)C[C@H]2O[C@@H]3O[C@]4(C)CC[C@@H]5[C@H](C)CC[C@@H]([C@H]2C)[C@@]35OO4)O[C@@H]2O[C@]3(C)CC[C@H]4[C@H](C)CC[C@@H]1[C@@]24OO3	active: 23.5 µM
COc1ccc(C(CN(C)C)C2(O)CCCCC2)cc1 (stereo not given)	inactive
CCN1CCN(C(=O)Cc2ccc(Nc3ncc(F)c(Nc4ccc(C(=O)Nc5ccccc5Cl)cc4)n3)cc2)CC1	inconclusive: 5.26 µM [cytotoxic, full curve]
CN1C(=O)CCS(=O)(=O)C1c1ccc(Cl)cc1 (stereo not given)	inactive
O=C(O)CNC(=O)c1c(O)c2ccccc2n(Cc2ccccc2)c1=O	inactive
CC(=O)N(C)c1cccc(-c2ccnc3c(C(=O)c4cccs4)cnn23)c1	inactive
Cc1ncc(OC[C@@]2(c3cccc(F)c3)C[C@H]2C(=O)Nc2ccc(F)cn2)c(C)n1	inactive
C=C[C@@H]1CN2CCC1C[C@H]2[C@H](O)c1ccnc2ccccc12 (stereo not given in full)	inconclusive: 33.2 µM [cytotoxic, single point]
O=C(N[C@@H](COc1ccc2[nH]c(=O)[nH]c2c1)c1ccccc1)c1cccn(Cc2ccc(F)c(F)c2)c1=O	inconclusive: 2.96 µM [cytotoxic, full curve]
C[C@H]1CCCC=CC2C[C@H](O)C[C@@H]2[C@H](O)C=CC(=O)O1 (stereo not given in full)	inconclusive: 0.0296 µM [cytotoxic, full curve]
Cc1sc2c(c1C)C(c1ccc(Cl)cc1)=N[C@@H](CC(=O)OC(C)(C)C)c1nnc(C)n1-2	active: 1.87 µM
C=C1C[C@H]2[C@H]3CCC(=O)[C@@]3(C)CC[C@@H]2[C@@]2(C)C=CC(=O)C=C12	inconclusive: 33.2 µM [cytotoxic, single point]
O=[N+]([O-])c1ncc[nH]1	inactive
CCOC(=O)c1c(C(C#N)=CN)c2ccc(Cl)c(Cl)c2n1C	inactive
CC[C@@]1(O)C(=O)OCc2c1cc1n(c2=O)Cc2cc3ccccc3nc2-1	active: 0.0235 µM
COc1ccc(N(C(=O)Oc2c(C)cccc2C)c2ccnc(Nc3ccc(N4CCN(C)CC4)cc3)n2)c(OC)c1	inconclusive: 23.5 µM [cytotoxic, single point]
c1ccc(CCCN2CCN(CCOC(c3ccccc3)c3ccccc3)CC2)cc1	active: 18.7 µM
N#C[C@H](O[C@@H]1O[C@H](CO[C@@H]2O[C@H](CO)[C@H](O)[C@H](O)[C@H]2O)[C@H](O)[C@H](O)[C@H]1O)c1ccccc1	inconclusive: 37.2 µM [cytotoxic, single point]
